# Assay results from patent US20020103111A1, “Inhibitors of MAdCAM-1-mediated interactions and methods of use therefor” (Millennium Pharmaceuticals, Inc., priority 1996, published 2002).
# Amino acid sequences for entries named in this document (tags omitted). Residues count along the entry.
# UniProt P13612, 34-1032: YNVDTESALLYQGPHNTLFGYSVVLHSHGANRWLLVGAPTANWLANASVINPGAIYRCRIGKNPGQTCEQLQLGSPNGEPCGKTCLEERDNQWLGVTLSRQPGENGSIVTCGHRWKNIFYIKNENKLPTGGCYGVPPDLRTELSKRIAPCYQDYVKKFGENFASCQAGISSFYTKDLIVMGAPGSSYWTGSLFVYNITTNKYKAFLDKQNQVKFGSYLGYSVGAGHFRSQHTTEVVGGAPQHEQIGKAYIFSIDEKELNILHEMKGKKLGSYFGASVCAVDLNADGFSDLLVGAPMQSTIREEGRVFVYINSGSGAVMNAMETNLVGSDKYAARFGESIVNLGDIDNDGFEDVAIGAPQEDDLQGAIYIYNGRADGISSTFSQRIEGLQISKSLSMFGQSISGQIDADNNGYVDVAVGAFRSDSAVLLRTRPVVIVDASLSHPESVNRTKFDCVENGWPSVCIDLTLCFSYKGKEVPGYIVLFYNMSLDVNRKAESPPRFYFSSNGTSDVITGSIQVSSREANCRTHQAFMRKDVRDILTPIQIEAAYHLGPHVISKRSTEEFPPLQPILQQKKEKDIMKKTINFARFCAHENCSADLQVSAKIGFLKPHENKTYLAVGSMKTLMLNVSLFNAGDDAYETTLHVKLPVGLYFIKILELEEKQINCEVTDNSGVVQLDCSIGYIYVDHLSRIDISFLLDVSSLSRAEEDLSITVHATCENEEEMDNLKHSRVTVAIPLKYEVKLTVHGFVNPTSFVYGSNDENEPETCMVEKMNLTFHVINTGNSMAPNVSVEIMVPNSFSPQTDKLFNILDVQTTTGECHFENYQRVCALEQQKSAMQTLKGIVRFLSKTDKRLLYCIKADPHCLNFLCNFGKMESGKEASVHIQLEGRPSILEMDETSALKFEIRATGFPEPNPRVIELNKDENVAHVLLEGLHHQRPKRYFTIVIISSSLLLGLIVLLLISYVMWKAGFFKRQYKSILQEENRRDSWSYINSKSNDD
# UniProt P26010, 20-798: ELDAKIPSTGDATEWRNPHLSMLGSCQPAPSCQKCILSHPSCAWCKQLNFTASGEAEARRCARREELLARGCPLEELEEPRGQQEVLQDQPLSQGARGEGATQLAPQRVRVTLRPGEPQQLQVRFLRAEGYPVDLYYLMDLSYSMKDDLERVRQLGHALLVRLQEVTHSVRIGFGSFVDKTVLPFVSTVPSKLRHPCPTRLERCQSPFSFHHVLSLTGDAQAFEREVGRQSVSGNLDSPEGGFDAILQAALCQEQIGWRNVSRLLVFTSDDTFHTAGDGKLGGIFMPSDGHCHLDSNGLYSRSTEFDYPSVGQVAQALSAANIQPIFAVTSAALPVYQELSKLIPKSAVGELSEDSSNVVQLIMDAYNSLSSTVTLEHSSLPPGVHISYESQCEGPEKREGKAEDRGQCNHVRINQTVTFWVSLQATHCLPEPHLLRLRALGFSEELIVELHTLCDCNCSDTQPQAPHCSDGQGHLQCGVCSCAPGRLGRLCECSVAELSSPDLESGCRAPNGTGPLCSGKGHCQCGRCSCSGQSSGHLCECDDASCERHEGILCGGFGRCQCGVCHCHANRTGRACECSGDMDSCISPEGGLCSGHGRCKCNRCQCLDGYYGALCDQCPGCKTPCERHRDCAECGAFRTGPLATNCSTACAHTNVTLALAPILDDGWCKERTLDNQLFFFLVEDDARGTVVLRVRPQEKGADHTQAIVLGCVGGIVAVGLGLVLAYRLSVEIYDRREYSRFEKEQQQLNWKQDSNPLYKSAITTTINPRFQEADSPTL
# For at least one compound, name, drawing or mass did not settle the structure.
# Biological target: T1, murine MAdCAM-1 (MAdCAM-1/mCk fusion protein); α4β7-bearing HUT 78 cells (Homo sapiens, UniProt P13612+P26010)
# T1 construct: host or cells: HUT 78 cells (endogenous α4β7); The MAdCAM-1/mCk partner was made in house in baculovirus-infected Sf9 insect cells, used as neat supernatant and captured by rat anti-mCk antibody
# Test: Adhesion of HUT 78 cells to MAdCAM-1/mCk fusion protein bound via capture antibody
# Type: cell-based
# Conditions: HUT 78 cell adhesion to MAdCAM-1/mCk; average of two determinations
# Procedure: The compounds of the present invention were evaluated for their biological properties.
# A soluble fusion protein comprising murine MAdCAM-1 was produced in a baculovirus expression system and used in the adhesion assay. A fusion gene in which sequences encoding the signal peptide and extracellular domain of murine MAdCAM-1 were fused to sequences encoding a constant region of the murine kappa light chain (mCk) was constructed, and cloned into a baculovirus shuttle vector. Fusion protein produced from the resulting construct contained the integrin binding sequences of murine MAdCAM-1 at the amino-terminus, and the mCk sequence at the carboxy-terminus. […]
# Human T-cell lymphoma cells (HUT 78 cells) activated with Mn^+2 were used for the adhesion assay in a 96-well format. […] The adhesion of HUT 78 cells to MAdCAM-1/mCk fusion protein bound to wells via rat anti-mCk capture antibody was assessed in the presence or absence of each compound. […] Percent inhibition and IC50 values were determined. […]
# Cell adhesion was measured in the presence or absence of compounds. […]
# Additional determinations were conducted as needed, so that each IC50 was determined over a range which encompassed the IC50. […]
# For each compound, a ratio was determined as follows: An average of the readings from duplicate wells was divided by an average of eight control wells (adhesion in the absence of any compound). […]
structure (smiles),measurement,value
"CC(C)C[C@H](NC(=O)[C@H](CO)NC(=O)[C@@H](NC(=O)[C@H](CC(=O)O)NC(=O)[C@H](CC(C)C)NC(=O)C1c2ccccc2Oc2ccccc21)[C@@H](C)O)C(N)=O [Example 35, Xnc-Leu-Asp-Thr-Ser-Leu]",IC50,3 µM
